Laboratory results taken from US20240409603A1.
These are yes or no findings as the source states them, for the method shown. Some entries that bind do so weakly or less than the wild type.

Amino acid sequences for entries named in this document (tags omitted). Residues count along the entry.
UniProt P10721, residues 26-976: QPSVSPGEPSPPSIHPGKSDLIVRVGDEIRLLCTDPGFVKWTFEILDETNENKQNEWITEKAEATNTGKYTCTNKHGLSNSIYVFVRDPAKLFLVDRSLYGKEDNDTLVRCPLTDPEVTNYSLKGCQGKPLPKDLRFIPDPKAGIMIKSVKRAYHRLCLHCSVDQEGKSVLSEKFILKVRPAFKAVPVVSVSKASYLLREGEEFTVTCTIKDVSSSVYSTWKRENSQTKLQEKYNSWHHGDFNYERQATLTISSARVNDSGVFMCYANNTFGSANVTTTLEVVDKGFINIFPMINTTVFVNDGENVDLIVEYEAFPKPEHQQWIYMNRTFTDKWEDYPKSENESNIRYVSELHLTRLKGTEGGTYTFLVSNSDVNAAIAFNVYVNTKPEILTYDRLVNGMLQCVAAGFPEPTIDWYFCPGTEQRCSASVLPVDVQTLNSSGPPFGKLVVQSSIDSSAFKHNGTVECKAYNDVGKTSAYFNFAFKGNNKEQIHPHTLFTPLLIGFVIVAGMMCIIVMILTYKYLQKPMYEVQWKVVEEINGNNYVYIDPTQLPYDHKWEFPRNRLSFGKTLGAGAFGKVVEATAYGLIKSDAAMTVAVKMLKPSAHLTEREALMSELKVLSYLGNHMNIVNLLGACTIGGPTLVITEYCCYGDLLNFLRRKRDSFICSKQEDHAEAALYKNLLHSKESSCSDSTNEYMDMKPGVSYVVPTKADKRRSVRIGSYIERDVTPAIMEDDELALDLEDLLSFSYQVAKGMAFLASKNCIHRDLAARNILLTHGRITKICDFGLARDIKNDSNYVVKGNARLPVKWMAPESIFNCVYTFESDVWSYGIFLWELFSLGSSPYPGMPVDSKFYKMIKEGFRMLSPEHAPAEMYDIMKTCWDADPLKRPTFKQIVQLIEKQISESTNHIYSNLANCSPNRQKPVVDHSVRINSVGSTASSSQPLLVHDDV

Biological target: wild type human CD117 protein (human) (UniProt P10721)
Experiment: flow cytometry on HEK-293T cells transfected with WT CD117

B1: JSP191 (antibody, human IgG1, kappa, N297Q, V domains shown)
VH: QVQLVQSGAEVKKPGASVKVSCKASGYTFTSYNMHWVRQAPGQGLEWMGVIYSGNGDTSYNQKFKGRVTITADKSTSTAYMELSSLRSEDTAVYYCARERDTRFGNWGQGTLVTVSS
VL: DIVMTQSPDSLAVSLGERATINCRASESVDIYGNSFMHWYQQKPGQPPKLLIYLASNLESGVPDRFSGSGSGTDFTLTISSLQAEDVAVYYCQQNNEDPYTFGGGTKVEIKR
binding: binds
